Source: patent US12491217B2, “Compositions and methods for promoting healthy neural development in an unborn baby” (The Regents of the University of California, priority 2019, dated 2025)

Test: Metabolomics of maternal serum at E14.5
Assay type: in vivo, C57Bl/6J mice

| Compound | fold of change ABX/SPF | fold of change GF/ABX | fold of change GF/SPF | fold of change GF/Sp | fold of change Sp/ABX | fold of change Sp/SPF |
| --- | --- | --- | --- | --- | --- | --- |
| C[C@H](CCC(=O)O)[C@H]1CC[C@H]2[C@@H]3[C@H](O)[C@@H](O)[C@@H]4C[C@H](O)CC[C@]4(C)[C@H]3CC[C@]12C [alpha-muricholate] | 0.04 | 1.00 | 0.04 | 0.00 | 221.52 | 8.04 |
| O=C(O)CCc1c[nH]c2ccccc12 [indolepropionate] | 0.01 | 0.24 | 0.00 | 0.00 | 54.72 | 0.70 |
| O=C(O)CNC(=O)CCc1ccccc1 [phenylpropionylglycine] | 0.01 | 1.00 | 0.01 | 0.01 | 72.57 | 0.60 |
| C[C@H](CCC(=O)NCCS(=O)(=O)O)[C@H]1CC[C@H]2[C@@H]3CC[C@@H]4C[C@H](O)CC[C@]4(C)[C@H]3C[C@H](O)[C@]12C [taurodeoxycholate] | 0.00 | 1.00 | 0.00 | 0.05 | 21.07 | 0.07 |
| C[C@H](CCC(=O)O)[C@H]1CC[C@H]2[C@@H]3[C@@H](O)C[C@@H]4C[C@H](O)CC[C@]4(C)[C@H]3CC[C@]12C [ursodeoxycholate] | 0.02 | 1.00 | 0.02 | 0.00 | 201.13 | 3.73 |
